Test results: patent publication US20130071417A1 (GOVERNING COUNCIL OF THE UNIVERSITY OF TORONTO, published 2013)
These are yes or no findings as the source states them, for the method shown. For some assays here: In cells and extracts the contact can be indirect. Some binding calls cover weakened binding; strength is not graded here. For some assays here: Where a sequence is shown, tags or fusion partners need not be part of it.

Amino acid sequences for entries named in this document (tags omitted). A change or cut given only in a name is not applied to a line headed by its entry.
UniProt P04386: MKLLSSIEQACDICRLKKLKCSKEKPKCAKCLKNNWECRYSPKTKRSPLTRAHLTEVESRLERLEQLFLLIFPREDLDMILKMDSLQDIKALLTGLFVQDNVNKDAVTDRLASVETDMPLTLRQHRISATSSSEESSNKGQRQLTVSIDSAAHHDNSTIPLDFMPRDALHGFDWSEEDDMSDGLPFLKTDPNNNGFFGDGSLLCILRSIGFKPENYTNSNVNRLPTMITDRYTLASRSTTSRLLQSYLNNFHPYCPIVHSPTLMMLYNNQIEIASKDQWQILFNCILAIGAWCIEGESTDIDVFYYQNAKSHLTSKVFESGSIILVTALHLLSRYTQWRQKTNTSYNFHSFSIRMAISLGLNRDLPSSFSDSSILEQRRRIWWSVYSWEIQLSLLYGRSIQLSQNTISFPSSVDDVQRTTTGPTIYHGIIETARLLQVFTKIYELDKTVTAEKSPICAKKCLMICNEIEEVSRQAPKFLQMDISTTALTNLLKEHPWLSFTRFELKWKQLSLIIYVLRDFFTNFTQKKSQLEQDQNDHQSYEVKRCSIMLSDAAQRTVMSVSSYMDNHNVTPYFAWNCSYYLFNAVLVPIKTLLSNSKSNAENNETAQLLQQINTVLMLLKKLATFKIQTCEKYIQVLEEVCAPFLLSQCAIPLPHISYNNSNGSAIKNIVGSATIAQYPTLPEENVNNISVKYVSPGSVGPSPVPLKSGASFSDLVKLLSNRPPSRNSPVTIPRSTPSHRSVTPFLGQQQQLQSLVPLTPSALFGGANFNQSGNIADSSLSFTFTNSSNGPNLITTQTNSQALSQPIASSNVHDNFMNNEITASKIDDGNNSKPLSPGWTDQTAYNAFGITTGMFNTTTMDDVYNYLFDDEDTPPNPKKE

How the values were obtained:
[1] = target: CEA N domain Prey fusion protein (GAL4 activation domain fused to CEA IgV-like N domain) (human) (UniProt P06731); assay: yeast two-hybrid, growth on SD lacking Trp, Leu and His
[2] = target: CEA A3B3 domain Prey fusion construct (GAL4 activation domain fused to CEA IgC-like A3B3 domain) (human) (UniProt P06731); assay: as above
[3] = target: CEA A3B3 domain Prey fusion construct (GAL4 activation domain fused to CEA IgC-like A3B3 domain) (human) (UniProt P06731); assay: yeast two-hybrid, growth on selective medium
[4] = target: untagged rCEA N domain (cleaved rCEA N, residues 1-132) (human) (UniProt P06731); assay: ELISA; untagged rCEA N coated, His-tagged module in solution, anti-His HRP detection
[5] = target: His-tagged rCEA A3B3 domain (residues 445-656, C-terminal His-tag) (human) (UniProt P06731); assay: co-immunoprecipitation with Col1 on protein A magnetic beads; 1 µM of each module
[6] = target: T1, His-tagged rCEA N domain (human); assay: pull-down with magnetic Ni-NTA beads coated with His-tagged module
T1 sequence: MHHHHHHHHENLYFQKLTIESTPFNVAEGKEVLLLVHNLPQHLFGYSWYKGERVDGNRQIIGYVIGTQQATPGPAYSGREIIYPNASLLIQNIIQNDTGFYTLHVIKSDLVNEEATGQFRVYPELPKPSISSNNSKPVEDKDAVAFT

[7] = target: His-tagged rCEA A3B3 domain (residues 445-656, C-terminal His-tag) (human) (UniProt P06731); assay: as above
[8] = target: His-tagged rCEA A3 domain (human) (UniProt P06731); assay: as above
[9] = target: T1, His-tagged rCEA N domain (human); assay: pull-down with magnetic Ni-NTA beads (figure legend; modules named in paragraph 102)
[10] = target: His-tagged rCEA A3B3 domain (residues 445-656, C-terminal His-tag) (human) (UniProt P06731); assay: as above
[11] = target: His-tagged rCEA A3 domain (human) (UniProt P06731); assay: as above

Measured: binding

CEA N domain Bait fusion protein (GAL4 DNA-binding domain fused to CEA IgV-like N domain) (from UniProt P04386 1-147; P06731 35-166)
binds: [1] | [2] | [3]

His-tagged rCEA A3 domain (from UniProt P06731 499-591)
binds: [4]

B1: untagged rCEA N domain (cleaved rCEA N, residues 1-132) (other)
chain: KLTIESTPFNVAEGKEVLLLVHNLPQHLFGYSWYKGERVDGNRQIIGYVIGTQQATPGPAYSGREIIYPNASLLIQNIIQNDTGFYTLHVIKSDLVNEEATGQFRVYPELPKPSISSNNSKPVEDKDAVAFT
notes: Made in E. coli, so it has no N-glycans; also called WT rCEA N domain; untagged WT rCEA N domain
binds: [5] | [6] | [7] | [8] | [9] | [10] | [11]
